Reference: PubChem BioAssay AID1053208 (Peter MacCallum Cancer Centre, 2014)
Assay: 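Genes whose silencing cuts survival of bone tumour cells only with doxorubicin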 (primary screen). Cell system: mouse osteosarcoma cells, early-passage culture from an engineered mouse model of fibroblastic bone tumour. Knock-down reagent: siRNA pool against mouse genes, 40 nM. Duration: about 120 h (48 h before drug, then 72 h with drug). Challenge: doxorubicin 100 nM for 72 h, roughly 30-40% inhibitory dose. Measurement: 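Viability read as ATP luminescence after 72 h of 100 nM doxorubicin or none, duplicate wells averaged, scaled to non-targeting siRNA, then expressed as robust z-scores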. Direction: viability z-score with doxorubicin: higher = more viable cells under doxorubicin; viability z-score without drug: higher = more viable cells with knock-down alone. Active means: 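a pool counts as active when its viability z-score with doxorubicin is -2 or below and its z-score without drug lies between -2 and 2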.
Shown is an unselected part of about 17,000 reagents tested. 788 of all reagents (4.7%) were called active. 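Calls rest on z-score classes alone; an extra cut-off of viability at most 70% of control was not applied to them.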 Not all columns of the deposit are shown. Reagent sequences are not shown.

With knock-down of Slc25a30, the record shows combined z-score class no change with or without drug; viability z-score with doxorubicin 1.35; viability z-score without drug -0.34; inactive.
Tas2r118 showed combined z-score class no change with or without drug; viability z-score with doxorubicin 0; viability z-score without drug -0.17; inactive.
Against Aqp4, the values are combined z-score class no change with or without drug; viability z-score with doxorubicin -1.35; viability z-score without drug -0.84; inactive.
Depletion of Mrpl9 resulted in: combined z-score class low cell count without drug only; viability z-score with doxorubicin -1.35; viability z-score without drug -2.53; inactive.
Trim41 showed combined z-score class no change with or without drug; viability z-score with doxorubicin 0.22; viability z-score without drug 0.67; inactive.
Against Or2j6 the deposit lists combined z-score class no change with or without drug; viability z-score with doxorubicin 1.24; viability z-score without drug 1.18; inactive.
Silencing of Nceh1 resulted in: combined z-score class no change with or without drug; viability z-score with doxorubicin -0.9; viability z-score without drug 0.51; inactive.
With knock-down of Frat2 the results were combined z-score class high cell count with doxorubicin only; viability z-score with doxorubicin 2.81; viability z-score without drug 1.85; inactive.
Against Scn7a the deposit lists combined z-score class high cell count with doxorubicin only; viability z-score with doxorubicin 2.02; viability z-score without drug 0.34; inactive.
Against Noazfp, the values are combined z-score class no change with or without drug; viability z-score with doxorubicin 1.35; viability z-score without drug 1.01; inactive.
Pym1 scored combined z-score class no change with or without drug; viability z-score with doxorubicin 1.35; viability z-score without drug 0.51; inactive.
Knock-down of Klrb1c resulted in: combined z-score class no change with or without drug; viability z-score with doxorubicin -1.01; viability z-score without drug -0.67; inactive.
After knock-down of Trim32, the record shows combined z-score class no change with or without drug; viability z-score with doxorubicin -0.45; viability z-score without drug 0.51; inactive.
Glp2r scored combined z-score class no change with or without drug; viability z-score with doxorubicin 0.45; viability z-score without drug 0.34; inactive.
Cuzd1 gave combined z-score class no change with or without drug; viability z-score with doxorubicin 0.22; viability z-score without drug -0.67; inactive.
Depletion of Lipk resulted in: combined z-score class no change with or without drug; viability z-score with doxorubicin 0.67; viability z-score without drug -0.51; inactive.
Knock-down of Col5a1 came out at: combined z-score class no change with or without drug; viability z-score with doxorubicin 1.12; viability z-score without drug 0.34; inactive.
For Mtss2, the values are combined z-score class low cell count with doxorubicin only; viability z-score with doxorubicin -2.02; viability z-score without drug 0.17; active.
Against Ckm, the values are combined z-score class no change with or without drug; viability z-score with doxorubicin 0.45; viability z-score without drug -1.18; inactive.
Pdcd1 scored combined z-score class no change with or without drug; viability z-score with doxorubicin -1.35; viability z-score without drug 0.51; inactive.
Epha7 gave combined z-score class no change with or without drug; viability z-score with doxorubicin 0.34; viability z-score without drug 0.17; inactive.
Knock-down of Vta1 came out at: combined z-score class no change with or without drug; viability z-score with doxorubicin 1.8; viability z-score without drug 0.51; inactive.
Knock-down of Ublcp1 resulted in: combined z-score class no change with or without drug; viability z-score with doxorubicin 0.34; viability z-score without drug 0.51; inactive.
Or10j5 gave combined z-score class no change with or without drug; viability z-score with doxorubicin 0.34; viability z-score without drug -0.84; inactive.
Ppp3cb showed combined z-score class no change with or without drug; viability z-score with doxorubicin 1.35; viability z-score without drug 0.84; inactive.
After knock-down of Kazn, the screen gave combined z-score class no change with or without drug; viability z-score with doxorubicin 0.67; viability z-score without drug 0.34; inactive.
Against Acan, the entry reads combined z-score class high cell count with doxorubicin only; viability z-score with doxorubicin 3.04; viability z-score without drug -0.34; inactive.
Against Rps6ka6, the entry reads combined z-score class no change with or without drug; viability z-score with doxorubicin 0.67; viability z-score without drug -1.18; inactive.

Records above whose gene name begins with C or c:
Cuzd1 — combined z-score class: no change with or without drug; viability z-score with doxorubicin: 0.22; viability z-score without drug: -0.67; call: inactive
Col5a1 — combined z-score class: no change with or without drug; viability z-score with doxorubicin: 1.12; viability z-score without drug: 0.34; call: inactive
Ckm — combined z-score class: no change with or without drug; viability z-score with doxorubicin: 0.45; viability z-score without drug: -1.18; call: inactive
